# PubChem BioAssay AID2662 (National Center for Advancing Translational Sciences (NCATS), 2010)
# Chains of the proteins cited; added tags and fusions are not shown.
# UniProt Q03164, whole entry, looked up: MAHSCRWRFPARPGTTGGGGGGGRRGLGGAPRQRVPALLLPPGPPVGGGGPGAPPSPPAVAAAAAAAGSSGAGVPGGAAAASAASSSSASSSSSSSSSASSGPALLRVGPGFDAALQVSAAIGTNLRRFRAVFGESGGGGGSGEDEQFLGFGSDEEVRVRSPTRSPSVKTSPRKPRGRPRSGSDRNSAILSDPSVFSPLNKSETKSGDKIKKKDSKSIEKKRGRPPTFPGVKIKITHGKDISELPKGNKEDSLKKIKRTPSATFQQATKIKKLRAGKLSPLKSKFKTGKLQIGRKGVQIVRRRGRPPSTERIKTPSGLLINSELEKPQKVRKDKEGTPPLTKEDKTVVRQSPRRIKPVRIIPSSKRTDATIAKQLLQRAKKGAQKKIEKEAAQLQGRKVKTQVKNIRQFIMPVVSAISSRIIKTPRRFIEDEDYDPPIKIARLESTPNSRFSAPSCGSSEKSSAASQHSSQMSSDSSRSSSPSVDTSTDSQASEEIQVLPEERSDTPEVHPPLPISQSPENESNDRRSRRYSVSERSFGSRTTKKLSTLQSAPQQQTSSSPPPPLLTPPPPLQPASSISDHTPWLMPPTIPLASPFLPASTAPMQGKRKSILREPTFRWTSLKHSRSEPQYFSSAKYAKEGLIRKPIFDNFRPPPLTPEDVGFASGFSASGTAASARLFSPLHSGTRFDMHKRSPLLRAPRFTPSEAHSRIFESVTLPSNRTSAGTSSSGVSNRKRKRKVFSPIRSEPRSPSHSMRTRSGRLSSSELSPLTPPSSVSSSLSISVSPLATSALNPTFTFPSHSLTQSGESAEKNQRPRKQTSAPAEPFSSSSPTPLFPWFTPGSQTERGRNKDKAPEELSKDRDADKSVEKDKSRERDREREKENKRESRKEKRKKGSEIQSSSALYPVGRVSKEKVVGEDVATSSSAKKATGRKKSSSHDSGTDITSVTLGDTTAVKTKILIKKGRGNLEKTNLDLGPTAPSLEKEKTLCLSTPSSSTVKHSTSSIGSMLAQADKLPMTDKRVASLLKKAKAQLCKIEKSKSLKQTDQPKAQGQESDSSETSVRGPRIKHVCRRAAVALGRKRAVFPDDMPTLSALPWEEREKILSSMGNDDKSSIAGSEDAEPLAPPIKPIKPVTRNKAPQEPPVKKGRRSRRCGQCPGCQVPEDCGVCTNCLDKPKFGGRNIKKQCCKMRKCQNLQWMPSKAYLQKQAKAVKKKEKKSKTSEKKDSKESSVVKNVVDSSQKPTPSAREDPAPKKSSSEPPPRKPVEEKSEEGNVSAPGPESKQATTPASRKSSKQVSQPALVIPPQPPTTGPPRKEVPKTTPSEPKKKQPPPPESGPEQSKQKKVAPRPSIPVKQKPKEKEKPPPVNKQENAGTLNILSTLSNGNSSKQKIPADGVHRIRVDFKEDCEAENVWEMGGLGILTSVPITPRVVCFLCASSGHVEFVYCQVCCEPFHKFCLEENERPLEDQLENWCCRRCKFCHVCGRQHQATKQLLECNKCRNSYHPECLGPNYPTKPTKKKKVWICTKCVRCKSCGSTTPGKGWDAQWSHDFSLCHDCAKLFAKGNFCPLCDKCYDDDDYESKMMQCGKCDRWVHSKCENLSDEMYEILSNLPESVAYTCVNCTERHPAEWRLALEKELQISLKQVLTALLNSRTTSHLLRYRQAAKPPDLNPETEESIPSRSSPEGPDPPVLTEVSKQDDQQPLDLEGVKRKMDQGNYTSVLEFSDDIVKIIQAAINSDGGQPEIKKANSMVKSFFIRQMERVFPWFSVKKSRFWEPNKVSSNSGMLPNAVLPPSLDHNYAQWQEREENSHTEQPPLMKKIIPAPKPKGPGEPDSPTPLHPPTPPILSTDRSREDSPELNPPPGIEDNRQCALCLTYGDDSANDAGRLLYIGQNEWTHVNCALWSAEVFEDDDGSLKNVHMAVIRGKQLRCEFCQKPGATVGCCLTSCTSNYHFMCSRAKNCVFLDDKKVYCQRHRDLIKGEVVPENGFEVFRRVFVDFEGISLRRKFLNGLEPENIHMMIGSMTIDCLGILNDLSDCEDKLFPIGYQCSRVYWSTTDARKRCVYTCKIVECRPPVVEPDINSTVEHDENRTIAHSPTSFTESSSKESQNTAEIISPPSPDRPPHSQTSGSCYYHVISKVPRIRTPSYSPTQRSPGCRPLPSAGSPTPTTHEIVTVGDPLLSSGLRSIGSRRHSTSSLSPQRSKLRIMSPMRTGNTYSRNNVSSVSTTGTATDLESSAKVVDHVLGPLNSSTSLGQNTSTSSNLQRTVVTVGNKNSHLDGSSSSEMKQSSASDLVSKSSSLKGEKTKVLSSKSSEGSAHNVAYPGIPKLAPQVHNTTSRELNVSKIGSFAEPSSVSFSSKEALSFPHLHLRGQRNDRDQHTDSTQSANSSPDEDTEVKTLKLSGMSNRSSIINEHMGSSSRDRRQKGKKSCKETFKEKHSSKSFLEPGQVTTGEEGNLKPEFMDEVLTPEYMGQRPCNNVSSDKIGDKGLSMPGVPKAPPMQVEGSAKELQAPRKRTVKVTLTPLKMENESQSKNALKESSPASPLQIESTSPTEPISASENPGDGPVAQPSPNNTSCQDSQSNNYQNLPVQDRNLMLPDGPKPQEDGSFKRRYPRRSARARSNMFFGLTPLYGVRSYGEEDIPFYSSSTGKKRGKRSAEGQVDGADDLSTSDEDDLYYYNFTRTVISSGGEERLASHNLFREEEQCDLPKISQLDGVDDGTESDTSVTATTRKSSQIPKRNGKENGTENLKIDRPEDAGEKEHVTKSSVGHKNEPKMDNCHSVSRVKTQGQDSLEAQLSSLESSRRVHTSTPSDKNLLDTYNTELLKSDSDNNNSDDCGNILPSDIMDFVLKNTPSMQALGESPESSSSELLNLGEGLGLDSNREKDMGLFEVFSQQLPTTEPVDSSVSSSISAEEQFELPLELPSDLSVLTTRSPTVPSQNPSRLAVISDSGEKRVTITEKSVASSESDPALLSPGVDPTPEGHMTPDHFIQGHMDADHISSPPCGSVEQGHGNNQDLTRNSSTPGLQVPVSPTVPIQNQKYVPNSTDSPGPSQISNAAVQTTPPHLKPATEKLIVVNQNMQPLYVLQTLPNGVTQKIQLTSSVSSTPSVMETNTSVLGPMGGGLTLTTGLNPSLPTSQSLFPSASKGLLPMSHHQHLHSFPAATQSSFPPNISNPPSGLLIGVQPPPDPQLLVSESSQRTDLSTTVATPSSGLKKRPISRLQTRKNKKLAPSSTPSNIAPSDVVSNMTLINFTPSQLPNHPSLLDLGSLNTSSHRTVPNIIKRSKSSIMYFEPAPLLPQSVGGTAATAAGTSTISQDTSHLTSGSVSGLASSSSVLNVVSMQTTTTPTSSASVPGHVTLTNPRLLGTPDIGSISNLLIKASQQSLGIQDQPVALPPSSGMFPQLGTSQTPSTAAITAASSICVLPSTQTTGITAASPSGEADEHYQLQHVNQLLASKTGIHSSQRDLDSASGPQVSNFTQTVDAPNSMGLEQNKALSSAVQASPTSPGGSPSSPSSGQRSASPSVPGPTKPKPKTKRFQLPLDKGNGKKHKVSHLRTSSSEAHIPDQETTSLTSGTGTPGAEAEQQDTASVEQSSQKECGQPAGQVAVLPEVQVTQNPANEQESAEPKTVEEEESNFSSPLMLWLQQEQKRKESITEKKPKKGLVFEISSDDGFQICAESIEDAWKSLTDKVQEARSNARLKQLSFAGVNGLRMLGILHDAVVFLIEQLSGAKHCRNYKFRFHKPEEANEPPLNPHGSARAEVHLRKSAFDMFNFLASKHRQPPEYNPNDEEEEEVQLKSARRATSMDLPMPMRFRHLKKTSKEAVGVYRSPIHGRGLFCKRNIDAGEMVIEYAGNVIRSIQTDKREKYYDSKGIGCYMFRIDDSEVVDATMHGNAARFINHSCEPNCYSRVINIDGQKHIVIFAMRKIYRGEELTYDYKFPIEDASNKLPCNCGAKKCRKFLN
# In all, about 290,000 compounds went through this assay and about 110 (0.038%) were called active. The inconclusive results got no clear call from the source; some entries with a clear call stand among them for comparison. Calls follow the shape of the dose curve; as a rule, active = well fitted inhibition curve with a large enough effect in the polarisation, with a control signal flat (not every such curve was filed as active); inconclusive = small, poorly fitted or top-dose-only effect, or effect the other way, or a change in a side signal; inactive = no such curve, though single readings can be large or run the other way; the % refers to the polarisation. A potency beside an inconclusive call is a rough fit, not a confirmed value. A note “side channel” means that the fit belongs to a control or component signal, not to the main read-out.
# Target: Histone-lysine N-methyltransferase 2A (Homo sapiens) (UniProt Q03164)
# Test: qHTS Fluorescence Polarization Assay for Inhibitors of MLL CXXC domain - DNA interaction
# Conditions: MLL-CXXC / FITC-HOXA9 DNA fluorescence polarization; activity change, negative = inhibition: at 115 µM (top of the series)
# Outline: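 Steps: dispense CXXC domain solution (7 uM) → pin compounds or unlabeled HOX-A9 DNA control → 5 min ambient → add FLSN-HOX-A9 solution (50 nM) → spin → 30 min ambient → fluorescence polarization. Tris pH 7.5/NaCl/DTT/BSA buffer.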
# Potency is read from the fitted curve at half-maximal effect.
SMILES,"activity change, negative = inhibition",Potency
O=C(NCc1n[nH]c(=S)n1-c1ccc(Br)cc1)c1cccs1,inactive: 4.36%,–
O=C(Nc1ccccc1Oc1ccsc1C(=O)O)c1ccccc1F,–,"inconclusive: 39.8 µM [inhibitor, single point]"
CCN1C(=NCCCOC(C)C)N[C@@H](CCc2ccccc2)[C@H](C(=O)NCCCOC(C)C)[C@H]1C,inactive: 16.8%,–
CC(C)[C@H](NS(=O)(=O)/C=C/c1ccccc1)C(=O)OCC(=O)NC(N)=O,–,"inconclusive: 28.2 µM [inhibitor, partial curve]"
O=C(O)c1ccccc1-c1ccc(/C=C/c2cc(C(F)(F)F)[nH]c(=O)n2)o1,–,"inconclusive: 7.94 µM [fluorescent, side channel, full curve]"
CCOc1ccc(CN(C)C(=O)CNC(=O)c2ccccc2)cc1,–,"inconclusive: 7.08 µM [inhibitor, single point]"
COc1ccc(N(C)C(=O)c2cn(CC(C)C)c(=O)c3cc(OC)c(OC)cc23)cc1,–,"inconclusive: 70.8 µM [quencher, side channel, single point]"
COc1ccc(C2Nc3ccccc3C(=O)N2c2ccc(C)cc2)cc1COc1ccccn1 (configuration not stated),–,"inconclusive: 63.1 µM [inhibitor, single point]"
CCN1CCc2c(sc(N)c2C#N)C1,inactive: -13%,–
CC(C)CNC(=O)C1CCCN(C(=O)NCc2ccccc2)C1 (configuration not stated),–,"inconclusive: 7.94 µM [inhibitor, full curve, poor fit]"
CC(=O)NCC1CCCN(Cc2cn(-c3ccccc3F)nc2-c2cc(C)sc2C)C1 (configuration not stated),–,"inconclusive: 15.8 µM [inhibitor, single point]"
Cc1cccc(N2CC(C(=O)Nc3nnc(SCC(=O)N4CCOCC4)s3)CC2=O)c1 (configuration not stated),–,"inconclusive: 25.1 µM [fluorescent, side channel, partial curve]"
NC(=O)[C@@H]1[C@@H]2C(=O)N(c3ccc(F)cc3)C(=O)[C@@H]2[C@H]2C=Cc3ccccc3N21,–,"inconclusive: 31.6 µM [fluorescent, side channel, partial curve]"
Cc1c(C(=O)N2CCOCC2)oc2ccc(S(=O)(=O)N3CCCC3)cc12,inactive: -13.4%,–
COc1cc(/C=C/c2ccc3cccc(O)c3n2)c(Br)cc1O,–,"inconclusive: 7.94 µM [fluorescent, side channel, partial curve]"
O=C(CCNS(=O)(=O)c1c(Cl)cccc1Cl)OCC(=O)c1ccccc1F,–,"inconclusive: 15.8 µM [fluorescent, side channel, partial curve]"
O=C(Nc1ccc2c(c1)OCCO2)C1CCCN1S(=O)(=O)c1ccc(Cl)cc1 (configuration not stated),inactive: 0.622%,–
CC1=C2C(CCS2(=O)=O)CC2(C1)C(=O)OC(C)(C)OC2=O (configuration not stated),inactive: -3.31%,–
CS(=O)(=O)c1ccc(C(=O)NCCN2C(=O)S/C(=C\c3cccnc3)C2=O)cc1[N+](=O)[O-],–,"inconclusive: 5.01 µM [inhibitor, full curve, poor fit]"
CCOC(=O)C1(CCCc2ccccc2)CCN(C2CCN(C(C)=O)CC2)CC1,–,"inconclusive: 35.5 µM [fluorescent, side channel, partial curve]"
O=C(COC(=O)CCc1nc2ccccc2s1)NC(=O)NCc1ccco1,–,"inconclusive: 1.58 µM [fluorescent, side channel, full curve, poor fit]"

# 18 entries from above, sorted by molar mass, largest number first.
SMILES,"activity change, negative = inhibition",Potency
CCN1C(=NCCCOC(C)C)N[C@@H](CCc2ccccc2)[C@H](C(=O)NCCCOC(C)C)[C@H]1C,inactive: 16.8%,–
Cc1cccc(N2CC(C(=O)Nc3nnc(SCC(=O)N4CCOCC4)s3)CC2=O)c1 (configuration not stated),–,"inconclusive: 25.1 µM [fluorescent, side channel, partial curve]"
COc1ccc(C2Nc3ccccc3C(=O)N2c2ccc(C)cc2)cc1COc1ccccn1 (configuration not stated),–,"inconclusive: 63.1 µM [inhibitor, single point]"
CC(=O)NCC1CCCN(Cc2cn(-c3ccccc3F)nc2-c2cc(C)sc2C)C1 (configuration not stated),–,"inconclusive: 15.8 µM [inhibitor, single point]"
O=C(CCNS(=O)(=O)c1c(Cl)cccc1Cl)OCC(=O)c1ccccc1F,–,"inconclusive: 15.8 µM [fluorescent, side channel, partial curve]"
COc1ccc(N(C)C(=O)c2cn(CC(C)C)c(=O)c3cc(OC)c(OC)cc23)cc1,–,"inconclusive: 70.8 µM [quencher, side channel, single point]"
O=C(Nc1ccc2c(c1)OCCO2)C1CCCN1S(=O)(=O)c1ccc(Cl)cc1 (configuration not stated),inactive: 0.622%,–
CCOC(=O)C1(CCCc2ccccc2)CCN(C2CCN(C(C)=O)CC2)CC1,–,"inconclusive: 35.5 µM [fluorescent, side channel, partial curve]"
O=C(NCc1n[nH]c(=S)n1-c1ccc(Br)cc1)c1cccs1,inactive: 4.36%,–
O=C(COC(=O)CCc1nc2ccccc2s1)NC(=O)NCc1ccco1,–,"inconclusive: 1.58 µM [fluorescent, side channel, full curve, poor fit]"
CC(C)[C@H](NS(=O)(=O)/C=C/c1ccccc1)C(=O)OCC(=O)NC(N)=O,–,"inconclusive: 28.2 µM [inhibitor, partial curve]"
Cc1c(C(=O)N2CCOCC2)oc2ccc(S(=O)(=O)N3CCCC3)cc12,inactive: -13.4%,–
O=C(O)c1ccccc1-c1ccc(/C=C/c2cc(C(F)(F)F)[nH]c(=O)n2)o1,–,"inconclusive: 7.94 µM [fluorescent, side channel, full curve]"
COc1cc(/C=C/c2ccc3cccc(O)c3n2)c(Br)cc1O,–,"inconclusive: 7.94 µM [fluorescent, side channel, partial curve]"
O=C(Nc1ccccc1Oc1ccsc1C(=O)O)c1ccccc1F,–,"inconclusive: 39.8 µM [inhibitor, single point]"
CC(C)CNC(=O)C1CCCN(C(=O)NCc2ccccc2)C1 (configuration not stated),–,"inconclusive: 7.94 µM [inhibitor, full curve, poor fit]"
CC1=C2C(CCS2(=O)=O)CC2(C1)C(=O)OC(C)(C)OC2=O (configuration not stated),inactive: -3.31%,–
CCN1CCc2c(sc(N)c2C#N)C1,inactive: -13%,–

# (next part)

SMILES,"activity change, negative = inhibition",Potency
COc1ccc(CCNC(=O)COc2ncnc3cc([N+](=O)[O-])ccc23)cc1,inactive: 4.04%,–
CC(=O)N(CCN1CCOCC1)Cc1cc2cc3c(cc2nc1Cl)OCO3,–,"inconclusive: 1.41 µM [quencher, side channel, full curve, poor fit]"
Cc1cc(/C=C2\NC(=S)N(C)C2=O)ccc1N1CCCC1,–,"inconclusive: 20 µM [fluorescent, side channel, partial curve]"
Oc1ccc2cccnc2c1,–,"inconclusive: 70.8 µM [inhibitor, single point]"
CCN(CC)CCN1C(=O)c2cccc3cc(N)cc(c23)C1=O,–,active: 35.5 µM
CC1(C)Cc2c(sc3ncn4c(=S)[nH]nc4c23)CO1,inactive: 4.77%,–
CCOC(=O)CCCCC(=O)c1[nH]c(=O)[nH]c1CSc1nnc2c3ccccc3n(C(C)C)c2n1,–,"inconclusive: 8.91 µM [fluorescent, side channel, partial curve]"
Fc1ccc2nc3c(nc2c1)CCCC3,–,"inconclusive: 31.6 µM [fluorescent, side channel, partial curve]"
COc1cc(C=C2C(=O)c3ccccc3C2=O)ccc1O,–,"inconclusive: 8.91 µM [inhibitor, partial curve]"
CC(=O)c1cc(NC(=O)c2ccccc2)c(=O)oc1/C=C/N(C)C,–,"inconclusive: 35.5 µM [fluorescent, side channel, partial curve]"
COC(=O)c1nn(-c2ccccc2)c(=O)cc1Oc1ccc(Cl)cc1,–,"inconclusive: 8.91 µM [inhibitor, single point]"
CCCCC(=O)Nc1cccc(-c2nc3ncccc3o2)c1,inactive: 3.48%,–
O=C(Cc1cccs1)NCc1ccccc1Br,–,"inconclusive: 70.8 µM [fluorescent, side channel, single point]"
COc1cccc(OC)c1-c1nn2c(-c3cc(-c4ccccc4)n[nH]3)nnc2s1,inactive: 102%,–
COc1cc(/C=C2\SC(=S)N(NS(=O)(=O)c3ccc(C)cc3)C2=O)cc(OC)c1OC,–,"inconclusive: 31.6 µM [inhibitor, partial curve, poor fit]"
Cc1ccccc1NC(=S)NC(NC(=O)COc1ccccc1)C(Cl)(Cl)Cl (configuration not stated),–,"inconclusive: 8.91 µM [inhibitor, partial curve]"
CSc1nc2ccccc2n1Cc1cccc([N+](=O)[O-])c1,–,"inconclusive: 14.1 µM [fluorescent, side channel, full curve, poor fit]"
COc1cc([N+](=O)[O-])ccc1NC(=O)NNC(=O)C(C)Oc1ccc(F)cc1F (configuration not stated),–,"inconclusive: 14.1 µM [fluorescent, side channel, single point]"
CC(=O)Nc1ccc(/C=C/c2nc3ccccc3o2)cc1,–,"inconclusive: 35.5 µM [fluorescent, side channel, single point]"
CC(=O)c1cc(NC(=O)c2cccc(C(F)(F)F)c2)c(=O)oc1/C=C/N(C)C,–,"inconclusive: 25.1 µM [fluorescent, side channel, partial curve]"
O=C(NCCN1CCOCC1)c1cc2ccccc2oc1=O,–,"inconclusive: 70.8 µM [quencher, side channel, single point]"

SMILES,"activity change, negative = inhibition",Potency
Cc1cc(N2CCN(c3ccccc3Cl)CC2)n2cc(-c3ccccc3)nc2n1,inactive: 16.1%,–
N#C/C(=C\c1cccs1)C(=O)c1ccccc1,–,"inconclusive: 31.6 µM [inhibitor, partial curve]"
O=c1c(O)c(-c2cccs2)oc2ccc(Cl)cc12,–,"inconclusive: 44.7 µM [fluorescent, side channel, partial curve]"
O=C(Cc1sc(-c2ccccc2)nc1-c1ccccc1)Nc1ccccc1,–,"inconclusive: 3.98 µM [quencher, side channel, partial curve]"
N#Cc1ccc(-c2nc3ccccc3c(=O)n2O)cc1,–,"inconclusive: 70.8 µM [fluorescent, side channel, single point]"
O=C(COc1ccccc1)N1c2ccccc2Sc2ccccc21,inactive: 5.86%,–
Cc1cc(C(=O)CSc2ccccc2)cc(C)c1O,–,"inconclusive: 15.8 µM [fluorescent, side channel, single point]"
O=c1cc(CN2CCN(Cc3ccccc3)CC2)c2ccc(O)c(O)c2o1,–,"inconclusive: 35.5 µM [fluorescent, single point]"
CCOc1ncccc1C(=O)NCc1cccc(OC)c1,–,"inconclusive: 11.2 µM [fluorescent, side channel, full curve, poor fit]"
COC(=O)c1cc(-c2c(C)oc3cc(OC(C)C)ccc3c2=O)c(C)o1,–,"inconclusive: 7.94 µM [quencher, side channel, partial curve]"
COc1ccccc1-c1cc(C(F)(F)F)nc(S(=O)(=O)CCCC(=O)N2CCCCC2C)n1 (configuration not stated),–,"inconclusive: 28.2 µM [quencher, side channel, partial curve]"
Cc1ccc2c(ccc[n+]2CC(=O)c2ccccc2)c1,–,"inconclusive: 14.1 µM [inhibitor, single point]"
Cc1cc(N2CCCC2)c(F)cc1/C=C\[N+](=O)[O-],–,"inconclusive: 28.2 µM [fluorescent, side channel, partial curve]"
CCCCc1c(O)c2ccccc2[nH]c1=O,inactive: 8.66%,–
Cc1csc(NC(=O)CSCC(=O)O)c1-c1nc2ccccc2s1,inactive: -10.6%,–
Cc1ccc(-c2c3c([nH]c(=S)c2C#N)CCCC3)o1,–,"inconclusive: 31.6 µM [fluorescent, side channel, partial curve]"
COCCNC(=O)C(=O)NNS(=O)(=O)c1ccc(Cl)cc1,inactive: -15.4%,–
O=C(CSc1nc2ccccc2s1)NC1CCCc2ccccc21 (configuration not stated),–,"inconclusive: 56.2 µM [inhibitor, single point]"
O=C(CCn1c2c(c3ccccc31)CCCC2)NNC(=O)c1ccccc1[N+](=O)[O-],–,"inconclusive: 11.2 µM [fluorescent, side channel, single point]"
COc1ccc(OC)c(S(=O)(=O)NCCC2=CCCCC2)c1,–,"inconclusive: 1.41 µM [fluorescent, side channel, partial curve, poor fit]"
